The values below come from article PMC7456325.

By UniProt entry, the sequences of proteins in these tests, tags left out.
UniProt P97287: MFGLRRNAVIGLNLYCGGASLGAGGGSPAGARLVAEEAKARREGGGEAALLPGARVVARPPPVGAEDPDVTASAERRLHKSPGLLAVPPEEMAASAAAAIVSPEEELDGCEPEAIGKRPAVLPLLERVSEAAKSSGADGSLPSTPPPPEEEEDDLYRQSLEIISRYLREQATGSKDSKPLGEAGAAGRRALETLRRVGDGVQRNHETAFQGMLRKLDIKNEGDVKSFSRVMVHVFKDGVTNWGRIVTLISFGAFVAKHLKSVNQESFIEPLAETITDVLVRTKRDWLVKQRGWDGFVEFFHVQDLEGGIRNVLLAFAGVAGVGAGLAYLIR

This assay addresses T1, HA-BAK (human) (UniProt Q16611).
T1 sequence: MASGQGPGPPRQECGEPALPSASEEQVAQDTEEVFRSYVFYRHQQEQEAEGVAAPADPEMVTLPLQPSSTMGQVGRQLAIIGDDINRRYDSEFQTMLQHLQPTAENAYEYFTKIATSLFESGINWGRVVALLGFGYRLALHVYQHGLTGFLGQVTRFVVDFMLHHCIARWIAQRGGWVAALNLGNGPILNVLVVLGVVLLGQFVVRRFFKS
The assay is described as follows: co-IP; lysates of Bax-/-/Bak-/- MEF in 20 mM Tris pH 7.4, 135 mM NaCl, 1.5 mM MgCl2, 1 mM EGTA, 10% glycerol with 1% Triton X-100; anti-HA or anti-FLAG agarose, 1 h at 4 °C, four washes; western blot.

Results are given in words; binding and its absence hold for the method and conditions named. In cells and extracts the contact can be indirect. Some entries that bind do so weakly or less than the wild type. Sequences can lack the tags named with a protein.

Regarding “endogenous MCL-1 (from UniProt P97287 1-331)”, the binding result is “binds”.
